# Laboratory results as given in PMC9410885, “Structural assembly of the nucleic-acid-binding Thp3–Csn12–Sem1 complex functioning in mRNA splicing” (Nucleic Acids Research, 2022).
# Tests used:
# Assay in all cases: fluorescence polarization
# [1] = test system: Thp3 + Csn12 + Sem1; conditions: FP: 20 mM Tris-HCl pH 8.0, 150 mM NaCl, 2 mM MgCl2, 25 C, 50 nM 5'-FAM probe, protein 0-25.6 uM, 30 min, recombinant protein, protein details: 8xHis-GST N-terminal, removed by TEV,none,none, label: 5' FAM
# [2] = test system: Thp3 K448E + Csn12 + Sem1; conditions: FP: 20 mM Tris-HCl pH 8.0, 150 mM NaCl, 2 mM MgCl2, 25 C; 50 nM 5'-FAM probe, protein 0-25.6 uM, 30 min; recombinant protein; protein details: 8xHis-GST N-terminal, removed by TEV,none,none; label: 5' FAM; single-stranded DNA
# [3] = test system: Thp3 R451E + Csn12 + Sem1; conditions: FP: 20 mM Tris-HCl pH 8.0, 150 mM NaCl, 2 mM MgCl2, 25 C; 50 nM 5'-FAM probe, protein 0-25.6 uM, 30 min; recombinant protein; protein details: 8xHis-GST N-terminal, removed by TEV,none,none; label: 5' FAM; single-stranded DNA
# [4] = test system: Thp3 K392E + Csn12 + Sem1; conditions: FP: 20 mM Tris-HCl pH 8.0, 150 mM NaCl, 2 mM MgCl2, 25 C; 50 nM 5'-FAM probe, protein 0-25.6 uM, 30 min; recombinant protein; protein details: 8xHis-GST N-terminal, removed by TEV,none,none; label: 5' FAM; single-stranded DNA
# [5] = test system: Thp3 R451E/K462E + Csn12 + Sem1; conditions: FP: 20 mM Tris-HCl pH 8.0, 150 mM NaCl, 2 mM MgCl2, 25 C; 50 nM 5'-FAM probe, protein 0-25.6 uM, 30 min; recombinant protein; protein details: 8xHis-GST N-terminal, removed by TEV,none,none; label: 5' FAM; single-stranded DNA
sequence,measurement,setting,value
AUAUAUAUAUAUAUA [AU-repeat ssRNA 15],binding result,[1],binds more weakly
TTTTATTTATTATTT [T-rich ssDNA 15],binding result,[1]; single-stranded DNA,binds more weakly
TTTTATTTTATTTTTATTTT [T-rich ssDNA 20],binding result,[2],binds more weakly
same,binding result,[3],binds more weakly
same,binding result,[4],binds more weakly
same,binding result,[5],binds more weakly

# Construct, isoform or probe ends are uncertain for at least one entry. Weaker means in comparison with the reference protein, sequence or condition of that experiment.
